# Screening data, single-dose tests

Data taken from ChEMBL document CHEMBL3988442, “University of Dundee, Small-Polar-MMV Screening Library” (2021).

Mtb cholesterol medium: 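Whole-cell growth test on Mycobacterium tuberculosis, read after 4 days in a medium based on cholesterol and the lipid DPPC; the read-out is not stated. Compounds at 50 µM. Higher reads as more growth inhibition (inferred: compounds with an IC50 in retests scored well above the rest). Size under these conditions: about 69,000 compounds, about 370 of them at 50% or above in at least one test.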
Mtb glucose medium: 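Phenotypic screen: M. tuberculosis growth, glucose 7H9 medium, 3 days; the read-out is not stated. Compounds at 50 µM. The record gives no direction; compounds that gave an IC50 in retests scored well above the rest, so higher reads as more growth inhibition. Size under these conditions: about 69,000 compounds, about 760 of them at 50% or above in at least one test.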

The filed quantity is “Percent Effect” (%). The controls that fix the scale are not given in the record; negative values are as filed. Compounds were drawn at random from those tested, without regard to their results. Two or more numbers in one place are separate tests of the same structure; such repeats can differ widely.

| SMILES | Mtb cholesterol medium | Mtb glucose medium |
|---|---|---|
| `O=S(=O)(C1CC1)N1CCCC2(COCCN(c3nncs3)C2)C1` (stereo not drawn) | -10.68 | -36.69 |
| `CC(C)(C)c1nc(CN2CCCN(Cc3cccs3)CC2)no1` | -9.835 | 32.37 |
| `Clc1cnccc1N1CCCOCC1` | -16.53 | -1.877 |
| `CNC(=O)c1ccc2c(c1)C1(CCN(CC3CC3)CC1)C(=O)N2.O=C(O)C(F)(F)F` | 14.57 | 21.2 |
| `Cc1nc(-c2ccc(NCCc3ccc(O)cc3)nc2)[nH]c(=O)c1C` | 59.11 | 70.91 |
| `N#CC1(C(=O)N2CCCN(c3nccs3)CC2)CCCC1` | 2.179 | 28.77 |
| `CC(C)CCN1C2(CCN(C(=O)CN(C)C)C2)c2ccccc2S1(=O)=O.O=C(O)C(F)(F)F` (stereo not drawn) | -16.77 | -10.42 |
| `Cc1cnc(C(=O)N2CCCCC2c2[nH]ncc2S(C)(=O)=O)cn1` (stereo not drawn) | -11.94 | 13.17 |
| `CCCn1ccnc1CN1C[C@@H](NC(C)=O)[C@H](c2ccc(OC)cc2)C1` | -12.31 | -7.049 |
| `[H][C@]12CN(C(=O)c3ccc(C)o3)C[C@@]1([H])OCCN(S(C)(=O)=O)C2` | 6.965 | -0.5471 & 9.452 |
| `Cc1ccccc1CNC(=O)CN1CCN(Cc2nccn2C)CC1` | 0.4729 | 13.96 |
| `CN1CCNCC(Cc2cnc3ccccc3c2)C1` (stereo not drawn) | 7.692 | 2.847 |
| `O=C1N(Cc2ccccc2F)CCCC12CCN(C1CCSCC1)C2` (stereo not drawn) | -5.186 | 36.37 |
| `CCCS(=O)(=O)N1CCC2(CN(c3ccsc3)C(=O)CN2C)C1.O=C(O)C(F)(F)F` (stereo not drawn) | -2.803 & 3.75 | -10.15 |
| `COc1c(CNCc2ccc(C(=O)NC3CC3)cc2)c(C)nn1C.Cl` | -4.428 | 11.73 |
| `O=C(NCc1cccnc1)N[C@H]1CC[C@@]2(CCC(=O)N2CC2CC2)CC1.O=C(O)C(F)(F)F` | -8.49 | -12.64 |
| `N#CC1=C(N)Nn2c(nnc2-c2ccccc2Br)S1` | -12.5 | -19.64 |
| `O=C1NCCN2CCN(C(=O)Nc3ccc(-c4ccccc4)cc3)CC12` (stereo not drawn) | -16.26 | -41.66 |
| `CC(C)CNC(=O)CSC1CCc2ccccc2NC1=O` (stereo not drawn) | -11.13 | -20.45 |
| `N#Cc1cccc(NC2CC(=O)N(C3Cc4ccccc4C3)C2)n1` (stereo not drawn) | 2.201 | 13.07 |
| `Cc1noc(C)c1CN(C)C(=O)C1CCCCN1CC(C)C` (stereo not drawn) | 10.71 | 18.57 & 8.243 |
| `COc1ccc(F)cc1S(=O)(=O)NCCn1cnc(C)cc1=O` | 5.231 | -9.597 |
| `N#Cc1ccccc1OCCN1CCCCC1C(=O)N1CCOCC1` (stereo not drawn) | -19.19 | -22.1 |
| `CCc1[nH]c(C2(N)CCCCC2)nc(=O)c1C` | -0.797 | 3.478 |
| `CCc1n[nH]c(=O)c(C(=O)N2CCOC3(CCCC3)C2)c1CC` | -6.216 | 20.87 |
| `Cc1[nH]c2ccccc2c1-c1ccnc(N[C@@H](C)CO)n1` | 0.7973 | -1.488 |
| `CNC(=O)c1nc(CN2CCOC(Cc3ccc(F)cc3)C2)no1` (stereo not drawn) | -13.75 | -9.936 |
| `[H][C@@]12CCCO[C@]1([H])[C@H](N(C)Cc1cccnc1)CN2c1ccccn1` | -2.498 | -5.909 |

Repeated from the top, 2 entries:

* O=S(=O)(C1CC1)N1CCCC2(COCCN(c3nncs3)C2)C1 (stereo not drawn) | Mtb cholesterol medium: -10.68%; Mtb glucose medium: -36.69%
* CC(C)(C)c1nc(CN2CCCN(Cc3cccs3)CC2)no1 | Mtb cholesterol medium: -9.835%; Mtb glucose medium: 32.37%